Our source for the binding values is article PMC12203913.

Chains of the proteins cited; added tags and fusions are not shown. Lines headed by an entry give the natural chain unless they say otherwise; changes in a name come on top.
UniProt Q01831: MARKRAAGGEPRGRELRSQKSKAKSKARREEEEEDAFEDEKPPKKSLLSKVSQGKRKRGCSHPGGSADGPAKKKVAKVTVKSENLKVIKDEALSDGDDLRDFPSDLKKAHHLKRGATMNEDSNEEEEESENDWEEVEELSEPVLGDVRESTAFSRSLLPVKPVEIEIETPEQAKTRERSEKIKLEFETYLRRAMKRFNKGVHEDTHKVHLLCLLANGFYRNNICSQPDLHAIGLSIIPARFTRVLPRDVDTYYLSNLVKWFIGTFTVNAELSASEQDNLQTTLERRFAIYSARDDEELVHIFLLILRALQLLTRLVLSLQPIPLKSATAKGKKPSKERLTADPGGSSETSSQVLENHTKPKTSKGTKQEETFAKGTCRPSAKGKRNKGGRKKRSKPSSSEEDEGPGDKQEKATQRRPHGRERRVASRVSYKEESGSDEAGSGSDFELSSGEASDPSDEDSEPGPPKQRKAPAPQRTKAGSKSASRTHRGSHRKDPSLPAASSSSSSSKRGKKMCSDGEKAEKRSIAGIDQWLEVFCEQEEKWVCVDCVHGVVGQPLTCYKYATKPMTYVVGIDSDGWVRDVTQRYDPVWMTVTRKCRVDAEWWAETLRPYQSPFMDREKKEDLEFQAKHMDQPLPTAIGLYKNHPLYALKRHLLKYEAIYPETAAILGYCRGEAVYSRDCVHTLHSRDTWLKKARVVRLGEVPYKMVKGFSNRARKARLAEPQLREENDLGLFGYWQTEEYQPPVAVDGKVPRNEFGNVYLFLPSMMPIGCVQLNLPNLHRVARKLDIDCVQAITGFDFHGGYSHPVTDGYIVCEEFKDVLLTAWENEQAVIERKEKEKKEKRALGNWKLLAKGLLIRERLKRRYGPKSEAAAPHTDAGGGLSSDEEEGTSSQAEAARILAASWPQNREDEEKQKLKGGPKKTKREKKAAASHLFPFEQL
UniProt P54727: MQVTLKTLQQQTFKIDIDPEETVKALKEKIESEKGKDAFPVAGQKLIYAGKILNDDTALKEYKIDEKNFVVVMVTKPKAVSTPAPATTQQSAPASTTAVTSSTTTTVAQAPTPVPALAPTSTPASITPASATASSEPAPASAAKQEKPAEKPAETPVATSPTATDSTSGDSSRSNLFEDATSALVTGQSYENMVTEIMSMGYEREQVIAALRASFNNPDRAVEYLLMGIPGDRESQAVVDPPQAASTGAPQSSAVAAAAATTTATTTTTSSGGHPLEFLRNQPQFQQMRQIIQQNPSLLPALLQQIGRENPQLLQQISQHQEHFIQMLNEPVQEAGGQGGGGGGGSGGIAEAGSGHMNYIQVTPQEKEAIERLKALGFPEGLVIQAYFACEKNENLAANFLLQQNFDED
UniProt Q16531: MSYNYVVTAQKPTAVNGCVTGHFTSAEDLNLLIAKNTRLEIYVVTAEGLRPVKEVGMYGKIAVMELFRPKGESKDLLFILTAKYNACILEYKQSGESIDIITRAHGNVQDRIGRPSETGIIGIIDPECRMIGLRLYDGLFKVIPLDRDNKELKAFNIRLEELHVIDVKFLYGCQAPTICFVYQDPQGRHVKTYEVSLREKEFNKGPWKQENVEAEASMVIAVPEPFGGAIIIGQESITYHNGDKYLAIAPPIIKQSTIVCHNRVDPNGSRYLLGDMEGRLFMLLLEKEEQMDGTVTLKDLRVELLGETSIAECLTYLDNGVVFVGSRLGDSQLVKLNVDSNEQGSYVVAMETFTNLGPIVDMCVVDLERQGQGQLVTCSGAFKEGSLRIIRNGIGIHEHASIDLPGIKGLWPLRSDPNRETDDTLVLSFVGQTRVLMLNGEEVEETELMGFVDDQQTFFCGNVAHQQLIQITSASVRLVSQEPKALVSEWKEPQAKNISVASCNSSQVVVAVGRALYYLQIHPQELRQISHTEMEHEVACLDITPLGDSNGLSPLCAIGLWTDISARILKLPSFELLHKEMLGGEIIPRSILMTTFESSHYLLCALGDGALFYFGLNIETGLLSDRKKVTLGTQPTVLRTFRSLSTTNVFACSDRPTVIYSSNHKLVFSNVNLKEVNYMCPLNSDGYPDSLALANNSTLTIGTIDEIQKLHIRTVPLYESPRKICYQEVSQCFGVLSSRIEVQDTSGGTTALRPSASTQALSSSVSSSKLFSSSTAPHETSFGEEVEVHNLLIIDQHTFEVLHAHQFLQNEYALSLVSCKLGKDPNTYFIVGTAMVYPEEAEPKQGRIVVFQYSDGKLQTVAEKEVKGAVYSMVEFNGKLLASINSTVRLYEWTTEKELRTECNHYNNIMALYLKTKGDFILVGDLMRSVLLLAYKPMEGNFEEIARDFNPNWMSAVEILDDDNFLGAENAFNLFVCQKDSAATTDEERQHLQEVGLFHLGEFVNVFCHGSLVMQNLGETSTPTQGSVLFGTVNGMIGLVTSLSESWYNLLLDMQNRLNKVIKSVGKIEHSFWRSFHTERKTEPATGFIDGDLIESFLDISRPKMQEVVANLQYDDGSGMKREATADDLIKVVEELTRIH

The experiment concerns the target XPC-RAD23B (human) (UniProt Q01831+P54727). The experiment can be described thus: condition: only XPC-RAD23B pre-bound to λ-DNA and free XPC-RAD23B washed out; 0.2 nM UV-DDB; single-molecule DNA curtain; single-tethered λ-DNA curtains covered with XPC-RAD23B (8 nM incubated, ~70% coverage, unbound washed out, labelled with Alexa488-conjugated FLAG antibody); then 0.2 nM Qdot-labelled (anti-HA) UV-DDB injected; both purified.

These are yes or no findings as the source states them, for the method shown.

For “UV-DDB (heterodimer of DDB1 and DDB2) (from UniProt Q16531 1-1140; Q92466 1-427) (complex)”, the binding entry is listed as “no binding”.
